Results are given in words; binding and its absence hold for the method and conditions named. Binding seen in cells or lysates may run through a third protein. Some results given as binding are weak or reduced against the parent protein; the word gives no strength. Tags and fused reporters may be left off the sequences shown. Blank lines part the entries; values can stand above or below the binder they belong to.
Biological target: T1, CD2 Binding Protein 2 (CD2BP2/U5-52K), FLAG-tagged (human) (UniProt O95400)
T1 sequence: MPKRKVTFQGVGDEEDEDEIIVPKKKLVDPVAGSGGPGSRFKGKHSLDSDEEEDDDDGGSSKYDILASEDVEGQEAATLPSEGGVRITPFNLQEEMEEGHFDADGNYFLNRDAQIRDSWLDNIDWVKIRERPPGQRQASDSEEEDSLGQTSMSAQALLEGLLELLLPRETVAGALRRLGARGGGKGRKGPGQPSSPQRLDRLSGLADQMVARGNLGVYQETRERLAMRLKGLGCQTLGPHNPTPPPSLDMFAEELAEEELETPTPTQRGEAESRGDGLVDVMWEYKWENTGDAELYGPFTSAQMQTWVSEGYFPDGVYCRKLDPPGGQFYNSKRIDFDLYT
Assay: cross-linking; anti-FLAG IP of CD2BP2-FLAG from HEK293T CD2BP2-/- lysate (~100 mg protein), on-bead crosslinking with DSSO, tryptic digest, LC-MS2-MS3, XlinkX, 1 % FDR; two technical and two biological replicates

B1: DHX38 - Prp16 (protein, UniProt Q92620 1-1227)
chain: MGDTSEDASIHRLEGTDLDCQVGGLICKSKSAASEQHVFKAPAPRPSLLGLDLLASLKRREREEKDDGEDKKKSKVSSYKDWEESKDDQKDAEEEGGDQAGQNIRKDRHYRSARVETPSHPGGVSEEFWERSRQRERERREHGVYASSKEEKDWKKEKSRDRDYDRKRDRDERDRSRHSSRSERDGGSERSSRRNEPESPRHRPKDAATPSRSTWEEEDSGYGSSRRSQWESPSPTPSYRDSERSHRLSTRDRDRSVRGKYSDDTPLPTPSYKYNEWADDRRHLGSTPRLSRGRGRREEGEEGISFDTEEERQQWEDDQRQADRDWYMMDEGYDEFHNPLAYSSEDYVRRREQHLHKQKQKRISAQRRQINEDNERWETNRMLTSGVVHRLEVDEDFEEDNAAKVHLMVHNLVPPFLDGRIVFTKQPEPVIPVKDATSDLAIIARKGSQTVRKHREQKERKKAQHKHWELAGTKLGDIMGVKKEEEPDKAVTEDGKVDYRTEQKFADHMKRKSEASSEFAKKKSILEQRQYLPIFAVQQELLTIIRDNSIVIVVGETGSGKTTQLTQYLHEDGYTDYGMIGCTQPRRVAAMSVAKRVSEEMGGNLGEEVGYAIRFEDCTSENTLIKYMTDGILLRESLREADLDHYSAIIMDEAHERSLNTDVLFGLLREVVARRSDLKLIVTSATMDAEKFAAFFGNVPIFHIPGRTFPVDILFSKTPQEDYVEAAVKQSLQVHLSGAPGDILIFMPGQEDIEVTSDQIVEHLEELENAPALAVLPIYSQLPSDLQAKIFQKAPDGVRKCIVATNIAETSLTVDGIMFVIDSGYCKLKVFNPRIGMDALQIYPISQANANQRSGRAGRTGPGQCFRLYTQSAYKNELLTTTVPEIQRTNLANVVLLLKSLGVQDLLQFHFMDPPPEDNMLNSMYQLWILGALDNTGGLTSTGRLMVEFPLDPALSKMLIVSCDMGCSSEILLIVSMLSVPAIFYRPKGREEESDQIREKFAVPESDHLTYLNVYLQWKNNNYSTIWCNDHFIHAKAMRKVREVRAQLKDIMVQQRMSLASCGTDWDIVRKCICAAYFHQAAKLKGIGEYVNIRTGMPCHLHPTSSLFGMGYTPDYIVYHELVMTTKEYMQCVTAVDGEWLAELGPMFYSVKQAGKSRQENRRRAKEEASAMEEEMALAEEQLRARRQEQEKRSPLGSVRSTKIYTPGRKEQGEPMTPRRTPARFGL
binding: binds

B2: BZW1 (protein, UniProt Q7L1Q6 1-419)
chain: MNNQKQQKPTLSGQRFKTRKRDEKERFDPTQFQDCIIQGLTETGTDLEAVAKFLDASGAKLDYRRYAETLFDILVAGGMLAPGGTLADDMMRTDVCVFAAQEDLETMQAFAQVFNKLIRRYKYLEKGFEDEVKKLLLFLKGFSESERNKLAMLTGVLLANGTLNASILNSLYNENLVKEGVSAAFAVKLFKSWINEKDINAVAASLRKVSMDNRLMELFPANKQSVEHFTKYFTEAGLKELSEYVRNQQTIGARKELQKELQEQMSRGDPFKDIILYVKEEMKKNNIPEPVVIGIVWSSVMSTVEWNKKEELVAEQAIKHLKQYSPLLAAFTTQGQSELTLLLKIQEYCYDNIHFMKAFQKIVVLFYKAEVLSEEPILKWYKDAHVAKGKSVFLEQMKKFVEWLKNAEEESESEAEEGD
binding: binds

B4: BRIX1 (protein, UniProt Q8TDN6 1-353)
chain: MAATKRKRRGGFAVQAKKPKRNEIDAEPPAKRHATAEEVEEEERDRIPGPVCKGKWKNKERILIFSSRGINFRTRHLMQDLRMLMPHSKADTKMDRKDKLFVINEVCEMKNCNKCIYFEAKKKQDLYMWLSNSPHGPSAKFLVQNIHTLAELKMTGNCLKGSRPLLSFDPAFDELPHYALLKELLIQIFSTPRYHPKSQPFVDHVFTFTILDNRIWFRNFQIIEEDAALVEIGPRFVLNLIKIFQGSFGGPTLYENPHYQSPNMHRRVIRSITAAKYREKQQVKDVQKLRKKEPKTLLPHDPTADVFVTPAEEKPIEIQWVKPEPKVDLKARKKRIYKRQRKMKQRMDSGKTK
binding: binds

B5: AQR (protein, UniProt O60306 1-1485)
chain: MAAPAQPKKIVAPTVSQINAEFVTQLACKYWAPHIKKKSPFDIKVIEDIYEKEIVKSRFAIRKIMLLEFSQYLENYLWMNYSPEVSSKAYLMSICCMVNEKFRENVPAWEIFKKKPDHFPFFFKHILKAALAETDGEFSLHEQTVLLLFLDHCFNSLEVDLIRSQVQQLISLPMWMGLQLARLELELKKTPKLRKFWNLIKKNDEKMDPEAREQAYQERRFLSQLIQKFISVLKSVPLSEPVTMDKVHYCERFIELMIDLEALLPTRRWFNTILDDSHLLVHCYLSNLVRREEDGHLFSQLLDMLKFYTGFEINDQTGNALTENEMTTIHYDRITSLQRAAFAHFPELYDFALSNVAEVDTRESLVKFFGPLSSNTLHQVASYLCLLPTLPKNEDTTFDKEFLLELLVSRHERRISQIQQLNQMPLYPTEKIIWDENIVPTEYYSGEGCLALPKLNLQFLTLHDYLLRNFNLFRLESTYEIRQDIEDSVSRMKPWQSEYGGVVFGGWARMAQPIVAFTVVEVAKPNIGENWPTRVRADVTINLNVRDHIKDEWEGLRKHDVCFLITVRPTKPYGTKFDRRRPFIEQVGLVYVRGCEIQGMLDDKGRVIEDGPEPRPNLRGESRTFRVFLDPNQYQQDMTNTIQNGAEDVYETFNIIMRRKPKENNFKAVLETIRNLMNTDCVVPDWLHDIILGYGDPSSAHYSKMPNQIATLDFNDTFLSIEHLKASFPGHNVKVTVEDPALQIPPFRITFPVRSGKGKKRKDADVEDEDTEEAKTLIVEPHVIPNRGPYPYNQPKRNTIQFTHTQIEAIRAGMQPGLTMVVGPPGTGKTDVAVQIISNIYHNFPEQRTLIVTHSNQALNQLFEKIMALDIDERHLLRLGHGEEELETEKDFSRYGRVNYVLARRIELLEEVKRLQKSLGVPGDASYTCETAGYFFLYQVMSRWEEYISKVKNKGSTLPDVTEVSTFFPFHEYFANAPQPIFKGRSYEEDMEIAEGCFRHIKKIFTQLEEFRASELLRSGLDRSKYLLVKEAKIIAMTCTHAALKRHDLVKLGFKYDNILMEEAAQILEIETFIPLLLQNPQDGFSRLKRWIMIGDHHQLPPVIKNMAFQKYSNMEQSLFTRFVRVGVPTVDLDAQGRARASLCNLYNWRYKNLGNLPHVQLLPEFSTANAGLLYDFQLINVEDFQGVGESEPNPYFYQNLGEAEYVVALFMYMCLLGYPADKISILTTYNGQKHLIRDIINRRCGNNPLIGRPNKVTTVDRFQGQQNDYILLSLVRTRAVGHLRDVRRLVVAMSRARLGLYIFARVSLFQNCFELTPAFSQLTARPLHLHIIPTEPFPTTRKNGERPSHEVQIIKNMPQMANFVYNMYMHLIQTTHHYHQTLLQLPPAMVEEGEEVQNQETELETEEEAMTVQADIIPSPTDTSCRQETPAFQTDTTPSETGATSTPEAIPALSETTPTVVGAVSAPAEANTPQDATSAPEETK
binding: binds

The next lines start with the values.

binding: binds
B3: SART1 (protein, UniProt O43290 1-800)
chain: MGSSKKHRGEKEAAGTTAAAGTGGATEQPPRHREHKKHKHRSGGSGGSGGERRKRSRERGGERGSGRRGAEAEARSSTHGRERSQAEPSERRVKREKRDDGYEAAASSKTSSGDASSLSIEETNKLRAKLGLKPLEVNAIKKEAGTKEEPVTADVINPMALRQREELREKLAAAKEKRLLNQKLGKIKTLGEDDPWLDDTAAWIERSRQLQKEKDLAEKRAKLLEEMDQEFGVSTLVEEEFGQRRQDLYSARDLQGLTVEHAIDSFREGETMILTLKDKGVLQEEEDVLVNVNLVDKERAEKNVELRKKKPDYLPYAEDESVDDLAQQKPRSILSKYDEELEGERPHSFRLEQGGTADGLRERELEEIRAKLRLQAQSLSTVGPRLASEYLTPEEMVTFKKTKRRVKKIRKKEKEVVVRADDLLPLGDQTQDGDFGSRLRGRGRRRVSEVEEEKEPVPQPLPSDDTRVENMDISDEEEGGAPPPGSPQVLEEDEAELELQKQLEKGRRLRQLQQLQQLRDSGEKVVEIVKKLESRQRGWEEDEDPERKGAIVFNATSEFCRTLGEIPTYGLAGNREEQEELMDFERDEERSANGGSESDGEENIGWSTVNLDEEKQQQDFSASSTTILDEEPIVNRGLAAALLLCQNKGLLETTVQKVARVKAPNKSLPSAVYCIEDKMAIDDKYSRREEYRGFTQDFKEKDGYKPDVKIEYVDETGRKLTPKEAFRQLSHRFHGKGSGKMKTERRMKKLDEEALLKKMSSSDTPLGTVALLQEKQKAQKTPYIVLSGSGKSMNANTITK

binding: binds
B6: EAPP (protein, UniProt Q56P03 1-285)
chain: MNRLPDDYDPYAVEEPSDEEPALSSSEDEVDVLLHGTPDQKRKLIRECLTGESESSSEDEFEKEMEAELNSTMKTMEDKLSSLGTGSSSGNGKVATAPTRYYDDIYFDSDSEDEDRAVQVTKKKKKKQHKIPTNDELLYDPEKDNRDQAWVDAQRRGYHGLGPQRSRQQQPVPNSDAVLNCPACMTTLCLDCQRHESYKTQYRAMFVMNCSINKEEVLRYKASENRKKRRVHKKMRSNREDAAEKAETDVEEIYHPVMCTECSTEVAVYDKDEVFHFFNVLASHS

binding: binds
B7: USP39 - SAD1 (protein, UniProt Q53GS9 1-565)
chain: MSGRSKRESRGSTRGKRESESRGSSGRVKRERDREREPEAASSRGSPVRVKREFEPASAREAPASVVPFVRVKREREVDEDSEPEREVRAKNGRVDSEDRRSRHCPYLDTINRSVLDFDFEKLCSISLSHINAYACLVCGKYFQGRGLKSHAYIHSVQFSHHVFLNLHTLKFYCLPDNYEIIDSSLEDITYVLKPTFTKQQIANLDKQAKLSRAYDGTTYLPGIVGLNNIKANDYANAVLQALSNVPPLRNYFLEEDNYKNIKRPPGDIMFLLVQRFGELMRKLWNPRNFKAHVSPHEMLQAVVLCSKKTFQITKQGDGVDFLSWFLNALHSALGGTKKKKKTIVTDVFQGSMRIFTKKLPHPDLPAEEKEQLLHNDEYQETMVESTFMYLTLDLPTAPLYKDEKEQLIIPQVPLFNILAKFNGITEKEYKTYKENFLKRFQLTKLPPYLIFCIKRFTKNNFFVEKNPTIVNFPITNVDLREYLSEEVQAVHKNTTYDLIANIVHDGKPSEGSYRIHVLHHGTGKWYELQDLQVTDILPQMITLSEAYIQIWKRRDNDETNQQGA

From publication PMC11412891
